Test results as given in article PMC7549910.
No constants are given. Whether binding was seen depends on the method and setting. Some entries that bind do so weakly or less than the wild type.

Protein sequences, listed by entry. Tags and fused reporters are not part of them. Residues count along the entry.
UniProt P0C0J7, residues 28-416: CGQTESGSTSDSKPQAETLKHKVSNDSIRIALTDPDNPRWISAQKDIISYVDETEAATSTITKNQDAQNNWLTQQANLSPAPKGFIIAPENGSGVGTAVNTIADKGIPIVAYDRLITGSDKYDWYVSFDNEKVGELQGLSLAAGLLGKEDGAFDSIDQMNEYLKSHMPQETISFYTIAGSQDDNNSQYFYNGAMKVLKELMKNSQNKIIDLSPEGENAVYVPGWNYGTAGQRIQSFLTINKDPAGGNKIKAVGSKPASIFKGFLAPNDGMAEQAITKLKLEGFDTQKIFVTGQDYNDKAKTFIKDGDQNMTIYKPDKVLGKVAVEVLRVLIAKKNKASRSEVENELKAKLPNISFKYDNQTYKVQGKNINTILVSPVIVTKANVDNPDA
UniProt Q8KQQ9: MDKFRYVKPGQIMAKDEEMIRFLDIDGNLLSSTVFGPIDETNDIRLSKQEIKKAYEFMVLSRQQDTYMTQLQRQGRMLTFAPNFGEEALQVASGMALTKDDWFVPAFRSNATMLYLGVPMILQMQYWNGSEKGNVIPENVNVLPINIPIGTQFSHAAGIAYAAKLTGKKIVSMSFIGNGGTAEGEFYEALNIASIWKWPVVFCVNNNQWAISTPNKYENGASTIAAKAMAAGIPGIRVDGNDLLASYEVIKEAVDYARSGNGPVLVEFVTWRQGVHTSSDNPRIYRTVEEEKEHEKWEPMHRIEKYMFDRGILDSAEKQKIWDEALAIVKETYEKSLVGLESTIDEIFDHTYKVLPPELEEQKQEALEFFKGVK
UniProt P08603, residues 19-1231: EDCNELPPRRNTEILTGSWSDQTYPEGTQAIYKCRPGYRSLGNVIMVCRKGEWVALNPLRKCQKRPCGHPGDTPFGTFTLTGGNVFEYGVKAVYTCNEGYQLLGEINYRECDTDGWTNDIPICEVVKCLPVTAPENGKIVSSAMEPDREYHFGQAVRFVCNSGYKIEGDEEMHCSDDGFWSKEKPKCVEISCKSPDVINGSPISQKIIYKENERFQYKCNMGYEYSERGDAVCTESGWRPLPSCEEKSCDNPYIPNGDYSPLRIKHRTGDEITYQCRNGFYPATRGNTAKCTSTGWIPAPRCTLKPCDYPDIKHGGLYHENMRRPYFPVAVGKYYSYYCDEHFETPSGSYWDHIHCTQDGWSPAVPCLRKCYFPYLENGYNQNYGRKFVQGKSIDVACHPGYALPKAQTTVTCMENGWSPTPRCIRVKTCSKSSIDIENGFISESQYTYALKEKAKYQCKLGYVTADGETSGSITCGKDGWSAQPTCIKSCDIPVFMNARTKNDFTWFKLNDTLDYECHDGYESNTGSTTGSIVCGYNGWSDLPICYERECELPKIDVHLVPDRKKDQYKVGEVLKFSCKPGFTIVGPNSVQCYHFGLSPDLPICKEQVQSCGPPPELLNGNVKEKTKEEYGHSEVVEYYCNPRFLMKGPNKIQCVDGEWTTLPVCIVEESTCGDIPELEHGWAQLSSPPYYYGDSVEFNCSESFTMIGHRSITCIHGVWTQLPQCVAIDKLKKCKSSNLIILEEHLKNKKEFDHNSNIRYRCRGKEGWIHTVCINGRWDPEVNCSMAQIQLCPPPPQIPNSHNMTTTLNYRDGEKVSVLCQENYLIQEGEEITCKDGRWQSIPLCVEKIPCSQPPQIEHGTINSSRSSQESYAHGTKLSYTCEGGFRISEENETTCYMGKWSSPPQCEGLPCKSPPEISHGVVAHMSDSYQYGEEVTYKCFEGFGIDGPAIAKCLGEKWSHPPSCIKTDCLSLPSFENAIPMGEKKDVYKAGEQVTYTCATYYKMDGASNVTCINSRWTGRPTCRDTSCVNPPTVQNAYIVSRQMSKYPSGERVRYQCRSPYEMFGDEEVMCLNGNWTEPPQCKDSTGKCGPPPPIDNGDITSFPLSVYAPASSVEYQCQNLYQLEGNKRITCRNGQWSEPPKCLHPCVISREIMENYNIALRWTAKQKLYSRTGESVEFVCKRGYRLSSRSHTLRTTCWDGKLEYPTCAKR

Key:
[1] = target: 46 kDa surface antigen (P46) of M. hyopneumoniae (M. hyopneumoniae (endogenous in strain 168)) (UniProt P0C0J7); assay: far-Western, overlay or dot blot; surface (Triton X-114) proteins of M. hyopneumoniae strain 168 resolved by 2-DE and transferred to PVDF; 10 ug/mL factor H in TBST overnight at 4°C; rabbit anti-factor H and HRP anti-rabbit, DAB; reactive spots identified by MALDI-TOF-MS; only the binder purified
[2] = target: pyruvate dehydrogenase (acetyl-transferring) E1 component subunit alpha (PdhA) of M. hyopneumoniae (M. hyopneumoniae (endogenous in strain 168)) (UniProt Q8KQQ9); assay: as above

Substance: human factor H (from UniProt P08603 19-1231)
- binding [1]: binds
- binding [2]: binds
